Source: patent US20100120039A1, “METHODS AND COMPOSITIONS IN BREAST CANCER THERAPY RESISTANCE” (priority 2008, published 2010)
At least one compound was matched to its structure with a doubt left.

Assays:
[1] = tested on: K303R ERα ERE-luciferase reporter; test: ERα transactivation assay (ERE-luciferase) in CHO cells; assay type: cell-based, Chinese hamster; conditions: LY 10 μmol/L or ICI 1 μmol/L
[2] = tested on: pAkt in K303R Arom 1 and 2 cells; test: Immunoblot of phosphorylated Akt; assay type: cell-based, human; conditions: LY 10 μmol/L, PI-103 1 μmol/L, Akti1/2 1 μmol/L, 30 min

Question: For `O=c1cc(N2CCOCC2)oc2c(-c3ccccc3)cccc12` [LY294002], which ERE activity [1] is on record?
Answer: inhibited

Question: What about the “basal Akt phosphorylation” value [2] of the same compound?
Answer: effectively blocked
